Test results taken from publication doi:10.1101/2020.08.27.268672 (bioRxiv, 2020).
No constants are given. Whether binding was seen depends on the method and setting. Binding seen in cells or lysates may run through a third protein. Here binding means that the protein was enriched with, or labelled near, the bait; the list need not be complete. A no says only that the protein was not detected with the bait. Tags and fused reporters may be left off the sequences shown.

Molecular target: T1, 6xHis-SUMO-DarB (Bacillus subtilis 168) (UniProt O31698)
T1 sequence: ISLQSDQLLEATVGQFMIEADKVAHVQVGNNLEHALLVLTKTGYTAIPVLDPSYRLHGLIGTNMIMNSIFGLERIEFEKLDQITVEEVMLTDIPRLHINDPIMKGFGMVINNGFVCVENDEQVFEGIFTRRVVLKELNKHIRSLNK
Assay: affinity purification with mass spectrometry

CcpC (endogenous)
binding: no binding
